From patent US20130324598A1, “TREATING MYCOBACTERIAL INFECTION WITH CU+/++ BOOSTING THERAPEUTICS” (priority 2011, published 2013)
At least one compound was matched to its structure with a doubt left.

Tested on: mycobacteria
Assay: Cu+/++ / disulfiram dose matrix, viability by AlamarBlue assay
Format: cell-based

What does the source list for `CCN(CC)C(=S)SSC(=S)N(CC)CC` [disulfiram]?
optimal disulfiram/Cu+/++ concentration (dose matrix experiments, FIG. 3B): in the range of physiological Cu^+/++ concentrations; activity against mycobacteria (when pre-complexed with Cu+/++): acts potently
